Measurements reported in PubChem BioAssay AID504793 (Drosophila RNAi Screening Center, 2011).

Screen: 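Genes required for cells to halt at G2/M after double-strand DNA breaks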 (primary screen)
Cells: Drosophila S2R+ cells
Reagent: long dsRNA against Drosophila genes, about 0.25 µg dsRNA per well
Timing: 4 days of dsRNA, then 4 hours of drug before read-out
Challenge: doxorubicin 0.5 µM for 4 hours to cause double-strand breaks, in cells also given a low, harmless dose of dsRNA against nbs to sensitise the assay
Read-out: 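Mitotic index as the number of phospho-histone H3-positive cells in each well following doxorubicin, given as raw counts without normalisation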
Direction: mitotic cells: higher = more cells in mitosis, weaker G2 arrest
Rule for the call: 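a call needs confirmation in secondary tests, with other dsRNAs and a check of mitotic timing without damage, not just a high primary count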
Calls: active = confirmed in follow-up tests; inactive = not confirmed
The deposit covers about 23,000 reagents; below is a random part of those with a known target gene and a result. Of all reagents, 62 (0.27%) got an active call. 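Calls come from follow-up tests whose scores are not deposited, so confirmed genes may have low counts here; counts are not normalised per plate.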 The raw values are shown without normalisation. A plus sign joins genes that one reagent is predicted to hit. No sequences are given here.

gene	DRSC id	mitotic cells, replicate 1	mitotic cells, replicate 2	outcome
Bap111	DRSC18419	4	16	inactive
Bap111	DRSC28822	14		inactive
Alp5	DRSC14269	10		inactive
Alp5	DRSC29539	6		inactive
intr	DRSC14528	11		inactive
CG1090	DRSC12150	8		inactive
CG1090	DRSC21604	19		inactive
asf1	DRSC11324	14		inactive
asf1	DRSC24067	7		inactive
kek3	DRSC03553	4		inactive
kek3	DRSC22830	10		inactive
kek3	DRSC24250	3		inactive
CG3108	DRSC18280	1		inactive
Ugt37B1	DRSC03225	8		inactive
CG6985	DRSC16164	5		inactive
CG6985	DRSC24923	4		inactive
CG13727	DRSC10055	6		inactive
Dph3	DRSC14923	6		inactive
Dph3	DRSC25545	10		inactive
NANS	DRSC15743	8		inactive
NANS	DRSC27626	6		inactive
CG15317	DRSC18005	11		inactive
CG15317	DRSC25924	6		inactive
CG5715	DRSC15860	11		inactive
CG5715	DRSC26011	6		inactive
ATP8B	DRSC14961	7		inactive
mora	DRSC16594	13		inactive
Obp47b + CG7741	DRSC06330	7		inactive
Obp47b + CG7741	DRSC27574	4		inactive
Sf3b1	DRSC00535	7		inactive
CG13692	DRSC00361	7		inactive
CG13692	DRSC28585	6		inactive
Polr2L	DRSC14630	15		inactive
HDAC6	DRSC20252	6		inactive
HDAC6	DRSC29348	9		inactive
Rad9	DRSC11263	9		inactive
ohgt	DRSC15521	3		inactive
ohgt	DRSC30024	8		inactive
CG8642	DRSC07228	10		inactive
CG18428	DRSC15326	11		inactive
CG18428	DRSC29185			inactive
Atxn7	DRSC23138	8		inactive
Scr	DRSC23141	15		inactive
Scr	DRSC29201	3		inactive
CG2680	DRSC18466	11		inactive
Lcp65Ae	DRSC11212	8		inactive
VhaM9.7-b	DRSC11841	9		inactive
Etfb	DRSC16324	6		inactive
E(spl)m7-HLH	DRSC16696	6		inactive
E(spl)m7-HLH	DRSC29451	9		inactive
Snrk	DRSC07192	9		inactive
Snrk	DRSC23332	15		inactive
Tengl4	DRSC15620	2		inactive
CG1598	DRSC06598	5		inactive
Sox100B	DRSC15090	14		inactive
Sox100B	DRSC23485	4		inactive
Sf3b2	DRSC00619	2		inactive
fiz	DRSC20188	6		inactive
CG18537	DRSC06764	11		inactive
CG18537	DRSC29847	13		inactive
CG1850	DRSC06762	8		inactive
CG13097	DRSC02199	4		inactive
CG17198 + CG17197	DRSC15190	11		inactive
CG17198 + CG17197	DRSC15191	8		inactive
CG17327	DRSC15225	9		inactive
CG31445	DRSC14443	8		inactive
CG31445	DRSC28642	6		inactive
Corp	DRSC17771	3		inactive
Corp	DRSC24622	8		inactive
wg	DRSC03636	4		inactive
wg	DRSC29776	10		inactive
CG1105	DRSC12528	3		inactive
CG1105	DRSC27366	2		inactive
CG13358	DRSC18534	7		inactive
CG13358	DRSC23742	4		inactive
Pdfr	DRSC18614	9		inactive
Reps	DRSC02940	2		inactive
CR33283	DRSC22918	14		inactive
CG14852	DRSC14976	4		inactive
CG14852	DRSC23844	1		inactive

13 entries from above, ordered by “mitotic cells, replicate 1”, ascending.
gene	DRSC id	mitotic cells, replicate 1	mitotic cells, replicate 2	outcome
CG14852	DRSC23844	1		inactive
CG1105	DRSC27366	2		inactive
Reps	DRSC02940	2		inactive
Corp	DRSC17771	3		inactive
CG1105	DRSC12528	3		inactive
wg	DRSC03636	4		inactive
CG13358	DRSC23742	4		inactive
CG14852	DRSC14976	4		inactive
CG13358	DRSC18534	7		inactive
Corp	DRSC24622	8		inactive
Pdfr	DRSC18614	9		inactive
wg	DRSC29776	10		inactive
CR33283	DRSC22918	14		inactive

The results go on.
gene	DRSC id	mitotic cells, replicate 1	mitotic cells, replicate 2	outcome
CG14050	DRSC18594	5		inactive
nSyb	DRSC08727	3		inactive
nSyb	DRSC27077	6		inactive
nenya	DRSC13838	3		inactive
Pgant35A	DRSC03557	4	5	inactive
Pgant35A	DRSC28249	3		inactive
bib	DRSC03496	5		inactive
bib	DRSC24888	7		inactive
CHOp24	DRSC18310	3		inactive
CG7130	DRSC11797	5		inactive
Taf8	DRSC20363	9		inactive
by	DRSC16482	3		inactive
by	DRSC28644	7		inactive
RhoGAP102A	DRSC17145	14		inactive
CG8854	DRSC07288	2		inactive
CG8854	DRSC24639	5		inactive
CG30268	DRSC21983	5		inactive
gsb-n	DRSC04021	4		inactive
gsb-n	DRSC04693	5		inactive
CG13516	DRSC04159	7		inactive
CG8119	DRSC20083	10		inactive
CG8119	DRSC27407	4		inactive
CG3494	DRSC04375	6		inactive
CG13836 (retired record)	DRSC14686	5		inactive
CG13836 (retired record)	DRSC28063	5		inactive
htl	DRSC16968	4		inactive
htl	DRSC36668	12		inactive
Cyp4g15	DRSC20240	9		inactive
Cap-D3 + tomb	DRSC02347	8		inactive
Acp53C14a	DRSC07224	7		inactive
Ing3	DRSC20002	5	19	inactive
Ing3	DRSC27959	5		inactive
CG11842	DRSC14400	11		inactive
CG11842	DRSC24924	9		inactive
CG6398	DRSC19992	4		inactive
Ssl2	DRSC14395	8		inactive
Ssl2	DRSC22796	11		inactive
CG6271	DRSC16006	7		inactive
CG6271	DRSC25865	6		inactive
CG7326	DRSC20037	4		inactive
CG12436 (retired record) + CG42514	DRSC26599	9		inactive
CG9674	DRSC11088	6		inactive
CG9674	DRSC11089	5		inactive
CG6550	DRSC07001	3		inactive
Arl2	DRSC14117	4		inactive
LKRSDH	DRSC03015	5		inactive
LKRSDH	DRSC24572	4		inactive
qkr58E-1	DRSC04709	2		inactive
qkr58E-1	DRSC23841	3		inactive
PIP4K	DRSC17213	10		inactive
GstE2	DRSC06672	8		inactive
GstE2	DRSC29733	9		inactive
CG7567	DRSC16258	16		inactive
Nhe2	DRSC03172	9		inactive
Nhe2	DRSC03377	6		inactive
ImpE3	DRSC16716	4		inactive
Trmt61	DRSC14888	6		inactive
CG7208	DRSC16212	5		inactive
CG7208	DRSC26213	8		inactive
Plap	DRSC00678	10		inactive
